Consider 15 targets from the supplement of paper PMC10849652.

Protein sequences, listed by entry. Tags and fused reporters are not part of them. Lines headed by an entry give the natural chain unless they say otherwise; changes in a name come on top.
UniProt O43543: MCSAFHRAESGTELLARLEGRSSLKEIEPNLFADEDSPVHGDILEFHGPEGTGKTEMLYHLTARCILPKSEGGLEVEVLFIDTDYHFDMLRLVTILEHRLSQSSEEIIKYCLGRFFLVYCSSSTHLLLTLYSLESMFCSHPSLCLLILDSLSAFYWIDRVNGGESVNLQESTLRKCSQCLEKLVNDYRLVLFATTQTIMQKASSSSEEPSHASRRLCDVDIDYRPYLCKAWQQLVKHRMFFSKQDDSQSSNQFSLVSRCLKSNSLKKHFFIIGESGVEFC
UniProt A4UGR9: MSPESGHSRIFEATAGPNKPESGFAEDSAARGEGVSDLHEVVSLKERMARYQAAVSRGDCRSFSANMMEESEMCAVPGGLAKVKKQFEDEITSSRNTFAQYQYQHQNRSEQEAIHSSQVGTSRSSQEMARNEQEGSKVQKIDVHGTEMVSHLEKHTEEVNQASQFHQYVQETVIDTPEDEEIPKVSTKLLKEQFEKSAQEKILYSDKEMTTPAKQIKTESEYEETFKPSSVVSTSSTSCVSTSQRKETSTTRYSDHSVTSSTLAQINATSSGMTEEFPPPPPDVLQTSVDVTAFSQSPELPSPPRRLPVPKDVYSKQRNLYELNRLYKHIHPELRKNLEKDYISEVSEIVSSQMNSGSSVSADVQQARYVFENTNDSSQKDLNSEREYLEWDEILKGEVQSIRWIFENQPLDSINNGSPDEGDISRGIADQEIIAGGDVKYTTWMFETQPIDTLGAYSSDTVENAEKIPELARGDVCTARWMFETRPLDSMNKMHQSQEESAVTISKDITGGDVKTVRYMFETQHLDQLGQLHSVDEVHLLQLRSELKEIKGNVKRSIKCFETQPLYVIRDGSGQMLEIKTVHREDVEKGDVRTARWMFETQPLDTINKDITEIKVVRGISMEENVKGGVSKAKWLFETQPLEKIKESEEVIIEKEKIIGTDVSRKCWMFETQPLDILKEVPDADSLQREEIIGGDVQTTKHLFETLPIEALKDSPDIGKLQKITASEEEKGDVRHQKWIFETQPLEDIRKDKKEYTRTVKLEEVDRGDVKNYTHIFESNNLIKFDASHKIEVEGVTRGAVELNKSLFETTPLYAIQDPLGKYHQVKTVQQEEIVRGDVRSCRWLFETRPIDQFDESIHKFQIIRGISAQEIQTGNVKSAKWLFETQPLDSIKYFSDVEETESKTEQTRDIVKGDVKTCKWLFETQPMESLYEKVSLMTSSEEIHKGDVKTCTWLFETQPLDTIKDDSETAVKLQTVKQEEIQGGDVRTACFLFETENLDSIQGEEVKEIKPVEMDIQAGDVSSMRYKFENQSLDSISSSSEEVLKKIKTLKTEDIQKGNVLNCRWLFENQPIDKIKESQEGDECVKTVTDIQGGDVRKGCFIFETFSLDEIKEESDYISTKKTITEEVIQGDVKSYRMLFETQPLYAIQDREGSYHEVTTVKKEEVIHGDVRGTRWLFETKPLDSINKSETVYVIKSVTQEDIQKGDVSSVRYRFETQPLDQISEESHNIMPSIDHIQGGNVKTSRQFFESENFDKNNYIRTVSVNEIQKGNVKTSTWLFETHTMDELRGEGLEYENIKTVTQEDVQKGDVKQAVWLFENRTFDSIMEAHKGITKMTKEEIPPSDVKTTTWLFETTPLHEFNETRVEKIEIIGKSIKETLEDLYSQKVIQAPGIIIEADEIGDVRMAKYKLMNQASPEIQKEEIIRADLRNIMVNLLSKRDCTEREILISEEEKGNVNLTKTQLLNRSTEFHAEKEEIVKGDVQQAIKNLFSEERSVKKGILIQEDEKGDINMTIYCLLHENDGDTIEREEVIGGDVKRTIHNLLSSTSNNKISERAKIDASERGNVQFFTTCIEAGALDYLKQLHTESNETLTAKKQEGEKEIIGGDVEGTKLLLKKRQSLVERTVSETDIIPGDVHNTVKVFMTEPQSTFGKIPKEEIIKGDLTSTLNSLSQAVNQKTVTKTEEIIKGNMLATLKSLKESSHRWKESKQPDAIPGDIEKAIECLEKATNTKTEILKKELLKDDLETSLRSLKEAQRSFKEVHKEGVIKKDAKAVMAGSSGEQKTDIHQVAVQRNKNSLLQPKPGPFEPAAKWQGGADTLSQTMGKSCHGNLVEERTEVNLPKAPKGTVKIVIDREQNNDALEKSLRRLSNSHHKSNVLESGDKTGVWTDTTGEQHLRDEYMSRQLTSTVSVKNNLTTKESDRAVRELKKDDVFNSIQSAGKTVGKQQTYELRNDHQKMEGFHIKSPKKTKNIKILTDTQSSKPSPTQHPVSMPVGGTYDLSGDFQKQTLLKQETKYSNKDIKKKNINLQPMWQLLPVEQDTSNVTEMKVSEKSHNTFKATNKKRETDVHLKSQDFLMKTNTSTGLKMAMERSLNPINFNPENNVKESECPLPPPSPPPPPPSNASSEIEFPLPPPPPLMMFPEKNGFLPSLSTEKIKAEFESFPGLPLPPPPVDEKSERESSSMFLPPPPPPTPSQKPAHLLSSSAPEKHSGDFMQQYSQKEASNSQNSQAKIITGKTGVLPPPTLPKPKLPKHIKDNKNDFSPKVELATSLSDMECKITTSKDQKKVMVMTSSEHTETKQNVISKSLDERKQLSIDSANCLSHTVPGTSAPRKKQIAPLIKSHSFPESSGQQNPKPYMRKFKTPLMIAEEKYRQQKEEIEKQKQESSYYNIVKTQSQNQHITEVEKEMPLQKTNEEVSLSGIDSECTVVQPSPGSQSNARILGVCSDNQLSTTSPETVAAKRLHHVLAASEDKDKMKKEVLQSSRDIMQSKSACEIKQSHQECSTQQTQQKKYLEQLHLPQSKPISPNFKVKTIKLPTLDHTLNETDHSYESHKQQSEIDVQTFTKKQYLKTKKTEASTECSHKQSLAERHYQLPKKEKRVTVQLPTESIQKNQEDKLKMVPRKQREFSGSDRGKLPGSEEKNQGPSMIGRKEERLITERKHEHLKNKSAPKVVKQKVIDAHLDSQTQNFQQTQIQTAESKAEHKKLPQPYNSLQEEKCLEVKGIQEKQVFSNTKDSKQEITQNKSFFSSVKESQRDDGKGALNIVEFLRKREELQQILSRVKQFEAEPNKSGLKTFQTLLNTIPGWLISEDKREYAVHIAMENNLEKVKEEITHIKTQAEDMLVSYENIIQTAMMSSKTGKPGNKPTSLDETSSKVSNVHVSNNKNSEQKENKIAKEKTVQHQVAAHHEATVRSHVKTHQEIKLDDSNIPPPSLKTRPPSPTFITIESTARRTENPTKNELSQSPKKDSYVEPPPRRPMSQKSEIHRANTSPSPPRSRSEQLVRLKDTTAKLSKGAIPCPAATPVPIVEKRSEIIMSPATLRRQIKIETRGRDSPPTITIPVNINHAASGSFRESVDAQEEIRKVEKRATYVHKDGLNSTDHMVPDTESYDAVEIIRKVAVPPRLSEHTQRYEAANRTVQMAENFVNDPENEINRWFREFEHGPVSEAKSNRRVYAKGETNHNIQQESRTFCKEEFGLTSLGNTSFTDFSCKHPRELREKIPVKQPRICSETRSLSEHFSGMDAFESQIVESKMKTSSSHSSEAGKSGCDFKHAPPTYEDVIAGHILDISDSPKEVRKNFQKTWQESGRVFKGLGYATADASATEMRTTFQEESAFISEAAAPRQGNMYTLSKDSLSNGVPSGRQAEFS
UniProt Q9Y548: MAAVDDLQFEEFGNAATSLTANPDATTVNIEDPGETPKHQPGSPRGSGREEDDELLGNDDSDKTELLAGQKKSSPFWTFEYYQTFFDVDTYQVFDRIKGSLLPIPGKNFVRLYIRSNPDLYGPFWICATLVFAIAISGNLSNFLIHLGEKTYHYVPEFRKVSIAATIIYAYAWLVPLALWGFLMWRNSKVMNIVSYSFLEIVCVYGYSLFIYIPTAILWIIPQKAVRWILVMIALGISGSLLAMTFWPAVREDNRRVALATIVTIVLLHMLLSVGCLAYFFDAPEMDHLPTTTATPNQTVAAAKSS
UniProt O43670: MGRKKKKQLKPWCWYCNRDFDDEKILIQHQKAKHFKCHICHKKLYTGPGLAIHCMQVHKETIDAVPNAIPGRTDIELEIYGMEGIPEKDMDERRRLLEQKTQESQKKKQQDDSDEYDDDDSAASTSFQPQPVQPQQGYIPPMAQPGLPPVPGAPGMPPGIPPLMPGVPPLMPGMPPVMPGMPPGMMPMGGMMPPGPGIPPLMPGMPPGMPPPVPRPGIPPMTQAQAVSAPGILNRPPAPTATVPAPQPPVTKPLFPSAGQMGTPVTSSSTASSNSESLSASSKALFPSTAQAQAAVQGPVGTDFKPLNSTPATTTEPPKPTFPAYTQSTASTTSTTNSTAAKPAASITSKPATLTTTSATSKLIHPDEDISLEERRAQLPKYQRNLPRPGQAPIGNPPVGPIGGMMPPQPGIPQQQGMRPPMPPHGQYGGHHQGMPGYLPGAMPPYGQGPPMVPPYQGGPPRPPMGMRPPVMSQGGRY
UniProt P23025: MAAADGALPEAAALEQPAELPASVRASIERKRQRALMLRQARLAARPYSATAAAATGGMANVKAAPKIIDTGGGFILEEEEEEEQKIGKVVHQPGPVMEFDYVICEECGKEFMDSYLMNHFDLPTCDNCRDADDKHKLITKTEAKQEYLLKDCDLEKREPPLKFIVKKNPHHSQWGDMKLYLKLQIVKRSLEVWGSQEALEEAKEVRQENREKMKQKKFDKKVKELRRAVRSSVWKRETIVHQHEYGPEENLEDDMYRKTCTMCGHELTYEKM
UniProt O96006: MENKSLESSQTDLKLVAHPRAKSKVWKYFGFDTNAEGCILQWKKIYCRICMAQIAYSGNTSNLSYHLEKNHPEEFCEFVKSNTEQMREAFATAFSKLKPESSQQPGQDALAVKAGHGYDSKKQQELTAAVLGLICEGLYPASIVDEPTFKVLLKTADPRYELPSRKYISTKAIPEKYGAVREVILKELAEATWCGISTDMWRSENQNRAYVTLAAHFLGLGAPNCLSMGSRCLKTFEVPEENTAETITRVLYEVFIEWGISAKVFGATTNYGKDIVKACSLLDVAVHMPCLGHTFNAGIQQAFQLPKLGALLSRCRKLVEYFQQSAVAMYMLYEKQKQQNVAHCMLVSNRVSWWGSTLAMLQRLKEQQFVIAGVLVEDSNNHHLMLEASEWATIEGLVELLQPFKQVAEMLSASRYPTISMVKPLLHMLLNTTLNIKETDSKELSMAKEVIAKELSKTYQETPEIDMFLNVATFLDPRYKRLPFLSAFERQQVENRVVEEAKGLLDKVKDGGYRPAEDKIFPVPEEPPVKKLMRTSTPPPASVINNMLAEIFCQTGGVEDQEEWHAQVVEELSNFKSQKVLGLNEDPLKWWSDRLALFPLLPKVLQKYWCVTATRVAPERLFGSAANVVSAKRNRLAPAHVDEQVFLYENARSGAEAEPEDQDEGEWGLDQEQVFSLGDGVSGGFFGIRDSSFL
UniProt Q96DT7: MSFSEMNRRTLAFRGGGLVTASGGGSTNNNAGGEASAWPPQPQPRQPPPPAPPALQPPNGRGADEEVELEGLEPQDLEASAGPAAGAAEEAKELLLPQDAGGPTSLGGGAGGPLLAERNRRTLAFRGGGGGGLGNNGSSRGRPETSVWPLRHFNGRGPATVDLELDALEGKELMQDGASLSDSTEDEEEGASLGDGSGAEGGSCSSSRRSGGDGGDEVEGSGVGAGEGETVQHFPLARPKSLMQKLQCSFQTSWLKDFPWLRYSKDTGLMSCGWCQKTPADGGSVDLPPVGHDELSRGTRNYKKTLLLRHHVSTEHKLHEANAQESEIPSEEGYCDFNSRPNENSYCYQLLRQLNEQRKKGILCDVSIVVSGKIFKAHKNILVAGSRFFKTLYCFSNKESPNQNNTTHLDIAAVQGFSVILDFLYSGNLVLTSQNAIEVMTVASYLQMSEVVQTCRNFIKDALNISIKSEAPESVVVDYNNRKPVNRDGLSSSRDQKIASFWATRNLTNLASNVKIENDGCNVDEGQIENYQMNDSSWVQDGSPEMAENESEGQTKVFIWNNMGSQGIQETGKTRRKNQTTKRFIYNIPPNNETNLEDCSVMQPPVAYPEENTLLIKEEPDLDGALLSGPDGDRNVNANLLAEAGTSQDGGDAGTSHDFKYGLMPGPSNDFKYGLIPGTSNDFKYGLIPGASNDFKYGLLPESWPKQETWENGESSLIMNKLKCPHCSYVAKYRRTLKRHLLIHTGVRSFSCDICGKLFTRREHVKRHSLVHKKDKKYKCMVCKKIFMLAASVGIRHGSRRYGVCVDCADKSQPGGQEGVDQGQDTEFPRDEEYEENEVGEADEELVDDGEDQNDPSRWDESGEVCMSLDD
UniProt Q9BWQ6: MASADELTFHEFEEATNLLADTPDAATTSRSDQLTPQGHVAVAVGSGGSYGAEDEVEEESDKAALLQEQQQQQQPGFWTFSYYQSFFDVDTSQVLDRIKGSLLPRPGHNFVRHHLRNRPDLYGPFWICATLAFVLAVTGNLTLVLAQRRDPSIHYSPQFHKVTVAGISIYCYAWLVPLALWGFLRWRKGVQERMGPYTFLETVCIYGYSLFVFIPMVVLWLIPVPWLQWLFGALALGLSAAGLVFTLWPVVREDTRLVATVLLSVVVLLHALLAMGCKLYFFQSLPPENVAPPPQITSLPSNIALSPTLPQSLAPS

This is one part of the list.

Compound in this experiment: COc1cc2ncnc(Nc3ccc(F)c(Cl)c3)c2cc1OCCCN1CCOCC1 [gefitinib]
The experiment can be described thus: log2 fold change, soluble protein after heating vs DMSO (PISA); higher = thermal stabilisation; K562 cells, 10 uM, 30 min; active = over 0.2 and 3.5 SD of the protein, either way, in both replicates (recomputed). The gist of the method: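 Soluble protein was quantified by TMTpro 16plex LC-MS/MS after channel sums were equalised. It was obtained as the supernatant after 21,000xg for 90 min from pooled aliquots of K562 cells (2×10^6 cells/mL, 10 μM compound, 30 min) heated for 3 min across 48°C-58°C and extracted in PBS with 0.5% NP-40 at 4°C. Thermal stability values are relative to control samples and come from duplicates. They are given as log2 fold changes.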
As to XRCC2 (UniProt O43543), the log2 fold change was inactive: -0.037.
With XIRP2 isoform 8 (UniProt A4UGR9) the figure was inactive: 0.001.
Turning to ZNF106 (UniProt Q9H2Y7), the log2 fold change was inactive: 0.034.
With ZDHHC16 (UniProt Q969W1) the figure was inactive: 0.116.
On to YIPF1 (UniProt Q9Y548), for which the log2 fold change was inactive: 0.067.
With ZNF207 isoform 2 (UniProt O43670) the figure was inactive: -0.096; with XPA (UniProt P23025), inactive: 0.06.
With ZBED1 (UniProt O96006) the figure was inactive: -0.172; with ZFPM1 (UniProt Q8IX07), inactive: -0.154.
As for ZBTB10 (UniProt Q96DT7), the log2 fold change is inactive: -0.036.
For ZC3H11A (UniProt O75152) the value was inactive: 0.035.
As for XP32 (UniProt Q5T750), the log2 fold change is inactive: 0.428.
ZFAND3 (UniProt Q9H8U3): the log2 fold change was inactive: 0.056.
For ZFC3H1 (UniProt O60293) the value was inactive: -0.167; for YIPF2 (UniProt Q9BWQ6), inactive: 0.068.
